Experimental data published in publication doi:10.1101/2023.09.29.560215.
These are yes or no findings as the source states them, for the method shown. Some binding calls cover weakened binding; strength is not graded here.

Target: prion-like domain (PLD) linker of CP29A (176-254 aa) (Arabidopsis thaliana) (UniProt Q43349)
Experiment: NMR titration

binding: binds weakly
B1: prion-like domain (PLD) linker of CP29A (176-254 aa) (domain or fragment, UniProt Q43349 176-254)
chain: PPPPKREESFSRGPRSGGYGSERGGGYGSERGGGYGSERGGGYGSERGGGYGSQRSGGGYGGSQRSSYGSGSGSGSGSG
